Measured values reported in PubChem BioAssay AID248 (DTP/NCI, 2004).
The list is a part of this screen's results and no random one: it gathers tests that were run many times, whatever their T/C, doses with no T/C, and many T/C values between a quarter and a half above the control. Other doses and runs of a compound stand elsewhere. T/C: endpoint of the treated group in % of that of the vehicle group. Some entries give survivors of the animals treated and no T/C: the source files T/C as zero there, which appears to mark a toxic dose or a test without result, not a measured value. Some survivor counts are full or nearly so, which does not show that the dose was tolerated: the source hardly ever lists a survival T/C far under the control, and the zero likely stands for such cases as well. Counts of survivors are from the toxicity check (mostly the fifth day) where no day follows; animals may have died later. Schedules are NCI's codes, taken here to give the interval after Q, in days (D) or hours (H), and the number of doses after X. Some schedule codes hold Z or #, which are not explained here. Where survival is the endpoint, the PubChem record calls one and a half times the control and up active, and a quarter to a half above the control has no call in these data; cut-offs in other NCI protocols can differ. Some entries were tested several times; the values are given in rising order.

Test system: L1210 leukemia ip in BDF1 mice, survival T/C
Assay: NCI In Vivo Anticancer Drug Screen. Data for tumor model L1210 Leukemia (intraperitoneal) in B6D2F1 (BDF1) mice
Conditions: T/C endpoint: mean survival time, higher T/C = longer survival
[1] = dose: 400.0 mg/kg/injection, schedule: Q01DX001 (ip), vehicle: saline

Question: Which survivor count (dose: 75.0 mg/kg/injection, schedule: Q01DX001 (ip), vehicle: saline) does the source give for `O=C(C[n+]1ccccc1CO)c1ccc(-c2ccc(C(=O)C[n+]3ccccc3CO)cc2)cc1` here?
Answer: 0 of 6

Question: And the survivor count (dose: 150.0 mg/kg/injection, schedule: Q01DX001 (ip), vehicle: saline)?
Answer: 0 of 6

Question: What about the survivor count (dose: 300.0 mg/kg/injection, schedule: Q01DX001 (ip), vehicle: saline) of the same compound?
Answer: 0 of 6

Question: `O=C(Nc1ccc(C2=NCCN2)cc1)c1ccc(C(=O)Nc2ccc(C3=NCCN3)cc2)c([N+](=O)[O-])c1` was tested. Which T/C (dose: 2.0 mg/kg/injection, schedule: Q#A X Z (ip), vehicle: saline) did it give?
Answer: 136 % of control

Question: What about the T/C (dose: 2.4 mg/kg/injection, schedule: Q01DX Z (ip), vehicle: methylcellulose (MC)) of the same compound?
Answer: 137 % of control

Question: And the T/C (dose: 8.0 mg/kg/injection, schedule: Q01DX009 (ip), vehicle: saline)?
Answer: 141 and 148 % of control

Question: What about the T/C (dose: 8.0 mg/kg/injection, schedule: Q#A X Z (ip), vehicle: saline) of the same compound?
Answer: 134 % of control

Question: And the T/C (dose: 14.0 mg/kg/injection, schedule: Q07DX Z (ip), vehicle: saline)?
Answer: 126 % of control

Question: And the T/C (dose: 16.0 mg/kg/injection, schedule: Q01DX Z (ip), vehicle: saline)?
Answer: 137 % of control

Question: And the survivor count (dose: 16.0 mg/kg/injection, schedule: Q#A X Z (ip), vehicle: saline)?
Answer: 6 of 6

Question: What about the T/C (dose: 32.0 mg/kg/injection, schedule: Q01DX Z (sc), vehicle: steroid suspending solution) of the same compound?
Answer: 142 % of control

Question: And the survivor count (dose: 32.0 mg/kg/injection, schedule: Q#A X Z (ip), vehicle: saline)?
Answer: 0 of 6

Question: What about the survivor count (dose: 56.0 mg/kg/injection, schedule: Q07DX Z (ip), vehicle: saline) of the same compound?
Answer: 6 of 6

Question: What about the survivor count (dose: 64.0 mg/kg/injection, schedule: Q01DX009 (ip), vehicle: saline) of the same compound?
Answer: 0 of 6

Question: And the survivor count (dose: 64.0 mg/kg/injection, schedule: Q01DX Z (ip), vehicle: saline)?
Answer: 0 of 6

Question: What about the survivor count (dose: 112.0 mg/kg/injection, schedule: Q07DX Z (ip), vehicle: saline) of the same compound?
Answer: 4 of 6

Question: What about the survivor count (dose: 192.0 mg/kg/injection, schedule: Q03DX Z (ip), vehicle: saline) of the same compound?
Answer: 0 of 6

Question: What about the survivor count (dose: 224.0 mg/kg/injection, schedule: Q07DX Z (ip), vehicle: saline) of the same compound?
Answer: 0 of 6

Question: And the survivor count (dose: 250.0 mg/kg/injection, schedule: Q01DX Z (sc), vehicle: steroid suspending solution)?
Answer: 0 of 7

Question: And the survivor count (dose: 448.0 mg/kg/injection, schedule: Q07DX Z (ip), vehicle: saline)?
Answer: 0 of 6

Question: And the survivor count (dose: 480.0 mg/kg/injection, schedule: Q01DX Z (oral), vehicle: saline)?
Answer: 2 of 7

Question: And the survivor count (dose: 960.0 mg/kg/injection, schedule: Q01DX Z (oral), vehicle: saline)?
Answer: 0 of 7

Question: With `CN(CCO)CC1COc2ccccc2O1` (configuration not stated) as the compound, how does the survivor count [1] read?
Answer: 0 of 4

Question: For `CCCNC(=O)c1cc(NC(=O)Nc2ccc(C3=NCCCN3)cc2)cc(NC(=O)Nc2ccc(C3=NCCCN3)cc2)c1`, which survivor count (dose: 168.0 mg/kg/injection, schedule: Q01DX Z (ip), vehicle: carboxymethylcellulose (CMC)) is on record?
Answer: 6 of 6

Question: With `CCOC(Cl)CCl` (configuration not stated) as the compound, how does the survivor count (dose: 100.0 mg/kg/injection, schedule: Q01DX001 (ip), vehicle: saline with Tween-80) read?
Answer: 0 of 6

Question: What about the survivor count (dose: 200.0 mg/kg/injection, schedule: Q01DX001 (ip), vehicle: saline with Tween-80) of the same compound?
Answer: 0 of 6

Question: What about the survivor count (dose: 400.0 mg/kg/injection, schedule: Q01DX001 (ip), vehicle: saline with Tween-80) of the same compound?
Answer: 0 of 6

Question: `N=C(N)SCc1ccc([N+](=O)[O-])cc1` was tested. Which survivor count [1] did it give?
Answer: 0 of 4

Question: How did the survivor count (dose: 400.0 mg/kg/injection, schedule: Q01DX009 (ip), vehicle: acetone) turn out when `C#CCOCCC(C(=O)O)C(=O)O` was run?
Answer: 2 of 6

Question: `CCCCc1ccc(NC(=O)N(CCCl)N=O)cc1` was tested. Which T/C (dose: 0.7 mg/kg/injection, schedule: Q01DX009 (ip), vehicle: carboxymethylcellulose (CMC)) did it give?
Answer: 125 % of control

Question: And the T/C (dose: 1.5 mg/kg/injection, schedule: Q01DX009 (ip), vehicle: carboxymethylcellulose (CMC))?
Answer: 132 % of control

Question: What about the T/C (dose: 3.0 mg/kg/injection, schedule: Q01DX009 (ip), vehicle: carboxymethylcellulose (CMC)) of the same compound?
Answer: 138 % of control

Question: And the T/C (dose: 18.7 mg/kg/injection, schedule: Q01DX001 (ip), vehicle: carboxymethylcellulose (CMC))?
Answer: 128 % of control

Question: What about the T/C (dose: 75.0 mg/kg/injection, schedule: Q01DX001 (ip), vehicle: carboxymethylcellulose (CMC)) of the same compound?
Answer: 143 % of control

Question: And the T/C (dose: 150.0 mg/kg/injection, schedule: Q04DX003 (ip), vehicle: saline with Tween-80)?
Answer: 142 % of control

Question: What about the survivor count (dose: 300.0 mg/kg/injection, schedule: Q01DX001 (ip), vehicle: carboxymethylcellulose (CMC)) of the same compound?
Answer: 6 of 6

Question: And the T/C (dose: 300.0 mg/kg/injection, schedule: Q04DX003 (ip), vehicle: saline with Tween-80)?
Answer: 137 % of control
